Drawing on doi:10.1101/2021.06.01.446599, this text covers binding for two substances.

These are yes or no findings as the source states them, for the method shown. Where a sequence is shown, tags or fusion partners need not be part of it.

Assay in all cases: CeLINC
Assay [1] concerns the target T1, DLG-1 (fluorescently tagged at the endogenous locus, Figure 5A, B, D, E) (C. elegans) (UniProt G5ECY0).
T1 sequence: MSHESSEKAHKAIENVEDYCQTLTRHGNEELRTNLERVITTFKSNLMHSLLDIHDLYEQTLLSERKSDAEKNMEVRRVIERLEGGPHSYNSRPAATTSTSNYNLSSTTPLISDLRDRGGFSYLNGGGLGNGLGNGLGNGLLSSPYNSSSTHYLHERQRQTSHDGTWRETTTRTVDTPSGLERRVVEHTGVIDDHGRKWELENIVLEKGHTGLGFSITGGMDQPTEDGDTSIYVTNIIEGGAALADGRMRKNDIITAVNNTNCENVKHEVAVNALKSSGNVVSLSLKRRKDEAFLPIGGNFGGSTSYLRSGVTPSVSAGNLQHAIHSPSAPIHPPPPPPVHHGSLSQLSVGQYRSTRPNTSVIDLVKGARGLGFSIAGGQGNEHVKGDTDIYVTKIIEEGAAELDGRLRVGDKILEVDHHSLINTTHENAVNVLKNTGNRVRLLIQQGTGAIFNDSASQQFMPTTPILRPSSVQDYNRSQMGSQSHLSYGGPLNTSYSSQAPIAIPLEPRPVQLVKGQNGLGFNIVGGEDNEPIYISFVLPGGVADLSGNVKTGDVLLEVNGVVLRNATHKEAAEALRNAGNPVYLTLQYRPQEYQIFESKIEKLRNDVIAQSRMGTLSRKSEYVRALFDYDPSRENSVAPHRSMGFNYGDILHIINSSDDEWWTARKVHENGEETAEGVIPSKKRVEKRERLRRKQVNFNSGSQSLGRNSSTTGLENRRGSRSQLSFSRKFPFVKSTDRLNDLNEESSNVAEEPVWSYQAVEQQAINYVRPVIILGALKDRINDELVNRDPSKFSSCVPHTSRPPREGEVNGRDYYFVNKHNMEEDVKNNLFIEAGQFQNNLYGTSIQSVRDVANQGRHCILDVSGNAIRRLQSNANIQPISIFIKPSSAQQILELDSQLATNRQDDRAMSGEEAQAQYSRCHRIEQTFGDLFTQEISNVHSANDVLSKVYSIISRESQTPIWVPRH

Another assay deals with T2, GFP::PKC-3 (C. elegans) (UniProt Q19266).
T2 sequence: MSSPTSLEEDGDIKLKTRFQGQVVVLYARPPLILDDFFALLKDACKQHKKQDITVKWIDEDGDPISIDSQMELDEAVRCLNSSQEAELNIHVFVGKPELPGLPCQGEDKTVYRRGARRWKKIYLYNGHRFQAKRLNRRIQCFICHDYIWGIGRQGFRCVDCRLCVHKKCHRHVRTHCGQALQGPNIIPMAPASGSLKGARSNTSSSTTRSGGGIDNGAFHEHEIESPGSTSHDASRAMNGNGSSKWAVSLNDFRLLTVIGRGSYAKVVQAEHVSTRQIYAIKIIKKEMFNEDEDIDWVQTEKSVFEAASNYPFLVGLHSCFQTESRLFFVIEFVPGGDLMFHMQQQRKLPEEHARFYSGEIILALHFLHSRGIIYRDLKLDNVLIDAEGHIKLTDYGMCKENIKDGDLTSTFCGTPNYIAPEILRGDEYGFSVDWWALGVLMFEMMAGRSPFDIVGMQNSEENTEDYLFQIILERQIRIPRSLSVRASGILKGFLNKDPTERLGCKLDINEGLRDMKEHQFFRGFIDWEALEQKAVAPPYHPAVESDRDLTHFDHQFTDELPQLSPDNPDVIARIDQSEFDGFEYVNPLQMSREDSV

The target of assay [2] is T3, LET-413 (fluorescently tagged at the endogenous locus) (C. elegans) (UniProt O61967).
T3 sequence: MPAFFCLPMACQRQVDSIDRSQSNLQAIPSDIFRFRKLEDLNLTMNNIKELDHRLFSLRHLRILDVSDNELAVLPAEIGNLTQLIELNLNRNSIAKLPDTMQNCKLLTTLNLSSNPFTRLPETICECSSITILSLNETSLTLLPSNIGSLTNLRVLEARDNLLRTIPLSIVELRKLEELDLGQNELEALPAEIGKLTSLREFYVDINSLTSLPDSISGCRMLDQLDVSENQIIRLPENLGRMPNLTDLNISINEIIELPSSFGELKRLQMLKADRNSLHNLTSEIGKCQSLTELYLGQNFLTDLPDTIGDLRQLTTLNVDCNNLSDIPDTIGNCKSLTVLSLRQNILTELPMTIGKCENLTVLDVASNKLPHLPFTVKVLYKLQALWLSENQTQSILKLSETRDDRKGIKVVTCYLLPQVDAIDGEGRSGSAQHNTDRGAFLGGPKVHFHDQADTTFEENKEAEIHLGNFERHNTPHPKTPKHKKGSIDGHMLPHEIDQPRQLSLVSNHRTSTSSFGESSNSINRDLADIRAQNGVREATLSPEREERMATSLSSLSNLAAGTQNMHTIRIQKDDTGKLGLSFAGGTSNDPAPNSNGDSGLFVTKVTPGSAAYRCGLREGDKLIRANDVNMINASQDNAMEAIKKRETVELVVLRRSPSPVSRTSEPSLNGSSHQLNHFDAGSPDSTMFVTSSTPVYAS

The target of assay [3] is T4, GFP::MAPH-1.1 (C. elegans) (UniProt P91859).
T4 sequence: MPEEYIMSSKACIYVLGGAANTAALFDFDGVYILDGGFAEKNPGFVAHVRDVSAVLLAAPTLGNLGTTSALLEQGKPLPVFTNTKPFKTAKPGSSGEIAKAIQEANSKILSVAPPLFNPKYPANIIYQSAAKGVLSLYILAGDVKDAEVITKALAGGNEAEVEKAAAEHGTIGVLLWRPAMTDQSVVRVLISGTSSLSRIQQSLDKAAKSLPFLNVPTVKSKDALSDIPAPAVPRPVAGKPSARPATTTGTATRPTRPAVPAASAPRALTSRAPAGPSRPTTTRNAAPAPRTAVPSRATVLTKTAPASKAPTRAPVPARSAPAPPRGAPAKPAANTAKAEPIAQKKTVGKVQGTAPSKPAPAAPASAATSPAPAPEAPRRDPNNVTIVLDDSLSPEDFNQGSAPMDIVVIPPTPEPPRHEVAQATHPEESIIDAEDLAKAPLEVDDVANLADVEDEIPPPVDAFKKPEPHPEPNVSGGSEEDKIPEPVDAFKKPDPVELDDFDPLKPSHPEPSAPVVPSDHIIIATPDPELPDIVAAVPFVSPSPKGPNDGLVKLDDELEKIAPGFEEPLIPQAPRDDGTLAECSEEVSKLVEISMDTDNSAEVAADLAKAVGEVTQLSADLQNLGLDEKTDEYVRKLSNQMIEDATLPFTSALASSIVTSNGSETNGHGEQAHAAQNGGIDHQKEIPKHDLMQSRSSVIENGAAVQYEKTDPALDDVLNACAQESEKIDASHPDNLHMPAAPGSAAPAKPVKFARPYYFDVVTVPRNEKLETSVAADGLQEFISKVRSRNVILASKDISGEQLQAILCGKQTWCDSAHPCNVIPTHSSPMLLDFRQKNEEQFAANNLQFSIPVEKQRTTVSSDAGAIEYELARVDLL

With LGL-1::mScarlet (C. elegans), the binding result (in assay [1]; with GFP::PKC-3 (C. elegans); in assay [2]) was “no binding” in each case.

As for ERM-1::AID::mCherry (C. elegans), the binding entry in assay [3] was “no binding”.
